Tested on: SUM149
Experiment: CellTiter-Glo 72 h cytotoxicity assay, SUM149
Type: cell-based, human
Details: for LIPE: LiPE = pIC50 – log P, SUM149; for TI (BJ/SUM149): EC50 BJ / EC50 SUM149
Description: First, topological polar surface area (tPSA), a widely used molecular descriptor that provides insight into compound absorption and membrane penetration, was theoretically calculated for these compounds along with the estimated c log P (partition coefficient) or log P to further assess their global therapeutic potential.[18],[19] Lipophilicity, a measurable and predictable physical property, can provide practical guidance in designing compounds with improved molecular properties.[20] The tPSA sums the contribution of the surface area of polar atoms, enabling us to determine whether the compounds are more likely to be cell membrane permeable. The aqueous solubility was measured by ultraviolet/visible (UV/vis) spectroscopy.[21] […] EP shares an improved cLogP, but still relatively high from a desirable drug candidate (2.5–3.5). […] Compound 4 has a higher c log P, while compounds 5–10 have lower c log P values. To determine LiPE (lipophilicity efficiency), the following formula was used: LiPE = pIC50 – log P, according to established methods.[22],[23] […] The obtained EC50 values for the newly generated EP derivatives were within a similar range for other derivatives previously described against TNBC models.[17]
The following stable human cell lines were utilized for this study: SUM149 and MDA-MB-231 (breast cancer models) and BJ (human normal fibroblast, foreskin). Cells were purchased from BioIVT or the American Type Culture Collection (ATCC). Cells were cultured in F-12-Nutrient Mixture (SUM149), DMEM (MDA-MB-231), or EMEM (BJ) medium supplemented with 10% fetal bovine serum (Sigma-Aldrich, St. Louis, MO) and 2 mmol of L-glutamine, at 37 °C in a humidified 5% CO2 atmosphere (no antibiotics) as indicated by the manufacturer. Cell cultures were grown to 80–90% confluence before use, except where otherwise specified. Our cell lines are authenticated every 3 months using the CellCheck service (Idexx BioResearch, Westbrook, ME). Cells were tested for mycoplasma prior to use (MycoAlert detection Kit Lonza LT07–318) and discarded if they tested positive. A cell proliferation assay was performed using the CellTiter-Glo (Promega Corp., Madison, WI) luminescent cell viability assay kit. Cells were detached with trypsin, counted, and seeded in white polystyrene flat-bottom sterile 96-well tissue culture-treated plates (catalog no. 3917, Corning, Glendale, Arizona) and incubated overnight at 37 °C. MDA-MB231, SUM149, and BJ cells were seeded into 96-well plates at concentrations experimentally determined (0.4 × 10^4, 0.25 × 10^4, and 0.3 × 10^4 cells per well, respectively) to ensure logarithmic growth during the duration of the experiment and to prevent adverse effects on cell growth by DMSO exposure. The plates were incubated for 12 h before treatment. Stock solutions of test compounds (10 mM in DMSO) in nine 3-fold serial dilutions were dispensed. The final concentration of DMSO was 0.3% (v/v) in each well. The positive control used was staurosporine (10 μM) as the kill-all control, and the negative control used is DMSO as we have published. Staurosporine is a potent alkaloid inducer of various cell death modalities but primarily apoptosis, making it a reliable positive control for viability assays. The plates were incubated for 72 h and then quenched with CTG at 50 μL per well at RT. Plates were then incubated at RT for 20 min and centrifuged at 1000 rpm for 1 min. Luminescence was read on a CLARIOstar Plus plate reader (BMG LabTech, Ortenberg, Germany).
Three or four technical replicates were conducted for each experimental condition, and a minimum of three independent experiments were conducted for each assay. In vitro ADME values were expressed as mean ± standard deviation (SD) of at least three independent experiments. One-way analysis of variance (ANOVA) was adopted for comparisons among groups using the GraphPad Prism 10.2.3 (GraphPad Software, San Diego, CA). A difference of P < 0.05 was considered as statistically significant. […]

CC(C)[C@@H](C)/C=C/[C@@H](C)[C@H]1CC[C@H]2C3=CC=C4C[C@@H](O)CC[C@]4(C)[C@H]3CC[C@]12C [Compound 1, Ergosterol]
LIPE: –2.72

CC(C)[C@@H](C)/C=C/[C@@H](C)[C@H]1CC[C@@H]2[C@]1(C)CC[C@H]1[C@]23C=C[C@]2(C[C@@H](O)CC[C@]12C)OO3 [Compound 2, Ergosterol peroxide]
TI (BJ/SUM149): >9
LIPE: –1.28

CC(C)[C@@H](C)/C=C/[C@@H](C)[C@H]1CC[C@@H]2[C@]1(C)CC[C@H]1[C@]23C=C[C@]2(CC(=O)CC[C@]12C)OO3 [Compound 3]
TI (BJ/SUM149): >9
LIPE: –1.54

C=CC(=O)O[C@H]1CC[C@]2(C)[C@H]3CC[C@]4(C)[C@@H]([C@H](C)/C=C/[C@H](C)C(C)C)CC[C@H]4[C@@]34C=C[C@]2(C1)OO4 [Compound 4]
TI (BJ/SUM149): >2.5
LIPE: –2.91

CC(C)[C@@H](C)C1OC1[C@@H](C)[C@H]1CC[C@@H]2[C@]1(C)CC[C@H]1[C@]23C=C[C@]2(C[C@@H](O)CC[C@]12C)OO3 (stereo partly drawn) [Compound 5]
TI (BJ/SUM149): >25
LIPE: 0.14

CC(C)[C@@H](C)C1OC1[C@@H](C)[C@H]1CC[C@@H]2[C@]1(C)CC[C@H]1[C@]23C=C[C@]2(C[C@@H](OS(=O)(=O)O)CC[C@]12C)OO3 (stereo partly drawn) [Compound 5a]
TI (BJ/SUM149): >15
LIPE: –0.07

CC(C)[C@@H](C)/C=C/[C@@H](C)[C@H]1CC[C@@H]2[C@]1(C)CC[C@H]1[C@@]23OO[C@@]2(C[C@@H](O)CC[C@]12C)C(O)C3O (stereo partly drawn) [Compound 6]
TI (BJ/SUM149): >9
LIPE: –0.08

CC(C)[C@@H](C)/C=C/[C@@H](C)[C@H]1CC[C@@H]2[C@]1(C)CC[C@H]1[C@]23C=C[C@]2(C[C@@H](OC(=O)NS(=O)(=O)c4ccccc4)CC[C@]12C)OO3 [Compound 7]
TI (BJ/SUM149): >8
LIPE: –2.6

CC(C)[C@@H](C)C(O)C(O)[C@@H](C)[C@H]1CC[C@@H]2[C@]1(C)CC[C@H]1[C@@]23OO[C@@]2(C[C@@H](O)CC[C@]12C)C(O)C3O (stereo partly drawn) [Compound 8]
TI (BJ/SUM149): >26
LIPE: 2

CC(C)[C@@H](C)/C=C/[C@@H](C)[C@H]1CC[C@@H]2[C@]1(C)CC[C@H]1[C@]23C=C[C@]2(C[C@@H](OS(=O)(=O)O)CC[C@]12C)OO3 [Compound 9]
TI (BJ/SUM149): >18
LIPE: –1.24

CC(C)[C@@H](C)/C=C/[C@@H](C)[C@H]1CC[C@@H]2[C@]1(C)CC[C@H]1[C@@]23OO[C@@]2(C[C@@H](OS(=O)(=O)O)CC[C@]12C)C(OS(=O)(=O)O)C3OS(=O)(=O)O (stereo partly drawn) [Compound 10]
TI (BJ/SUM149): >24
LIPE: –0.07

— PMC11375702, “Early Preclinical Studies of Ergosterol Peroxide and Biological Evaluation of Its Derivatives” (ACS Omega, 2024)
